Laboratory results from patent US12077557B2, “Puromycin-based probes and methods of use thereof” (The Regents of the University of California, priority 2018, dated 2024).

Key:
[1] = LC-MS study of reaction of probe with H2O2 and other ROS; conditions: for product of reaction with H2O2 (LC-MS): probe 0.3 mM, H2O2 0.1 mM
Protocol: (§1) MilliQ water was used in all experiments unless otherwise stated. Reaction kinetics of the probes with species of interest and other substrates were investigated by LC-MS (Agilent Technology 6130, Quadrupole LC/MS) coupled with photodiode array for detection (X=275 nm). Confocal microscopy images were recorded on a Zeiss laser scanning microscope 710 with a 40× water-immersion objective lens using Zen 2009 software (Carl Zeiss).
(§2) Peroxymycin-1 and Ctrl-Peroxymycin-1 (0.3 mM), respectively, were dissolved in phosphate buffer (20 mM, pH 7.4)-methanol solution mixture (2:1, v/v) with 3 vol % DMSO and allowed to stand at room temperature. At predetermined time intervals, an aliquot of the solution mixture was taken for LC-MS analysis. Separation was achieved by gradient elution from 5-100% MeOH in water (constant 0.1 vol % formic acid) over 8 min, isocratic with 100% MeOH from 8 to 12 min and returned to initial conditions and equilibrated for 3 minutes. The LC chromatograms were recorded by monitoring absorption at 275 nm.
For the study of the reaction with H2O2, Peroxymycin-1 and Ctrl-Peroxymycin-1 (0.3 mm), respectively, were dissolved in phosphate buffer (20 mM, pH 7.4)-methanol solution mixture (2:1, v/v) with 3 vol % DMSO. H2O2 was then added to the solution mixture (final concentration=0.1 mM), and the reaction mixture was allowed to stand at room temperature. At predetermined time intervals, an aliquot of the solution mixture will be taken for LC-MS analysis as described above.
For other ROS, they were generated as described previously (Carroll, et al. J. Am. Chem. Soc. 2014, 136, 14742), and then added to the solution of peroxymycin with final concentration of 0.1 mM, except that the final concentration of peroxynitrite was 0.05 mM which is its physiologically relevant concentration. An aliquot of the solution was then taken for LC-MS analysis as described above.

[2] = LC-MS study of reaction of probe with H2S and other substrates
Protocol: as §1, §2

Row | SMILES | production of puromycin with peroxynitrite relative to H2O2 ([1]; peroxynitrite at 50 μM) | product of reaction with H2O2 (LC-MS) [1] | release of free puromycin in the presence of cysteine or GSH ([2]; cysteine or GSH 5 mM, LC-MS) | puromycin formed with H2S compared to other substrates ([2]; physiologically relevant concentrations of H2S, GSH, Cys, Hcys, reaction 1 h)
1 | COc1ccc(CC(NC(=O)OCc2ccc(B3OC(C)(C)C(C)(C)O3)cc2)C(=O)NC2C(CO)OC(n3cnc4c(N(C)C)ncnc43)C2O)cc1 (centres unmarked) [Peroxymycin-1] | an order of magnitude less | produces puromycin |  | 
2 | COc1ccc(CC(NC(=O)OCc2ccc(N=[N+]=[N-])cc2)C(=O)NC2C(CO)OC(n3cnc4c(N(C)C)ncnc43)C2O)cc1 (centres unmarked) [H2S-Puro-1] |  |  | no significant release of free puromycin | at least 5.0 fold
3 | COc1ccc(CC(NC(=O)OCCc2ccc(B3OC(C)(C)C(C)(C)O3)cc2)C(=O)NC2C(CO)OC(n3cnc4c(N(C)C)ncnc43)C2O)cc1 (centres unmarked) [Ctrl-Peroxymycin-1] |  | without self-immolative cleavage to produce puromycin |  | 
